Reference: PubChem BioAssay AID2685 (National Center for Advancing Translational Sciences (NCATS), 2010)
This is one part of the list. The main result of the screen is listed elsewhere. These columns were measured beside it and carry no call. Most of these compounds were active or inconclusive in the main read-out, so they are no random draw. Words in brackets tell the shape of the fitted curve; partial curves, single points and poor fits give uncertain potencies. Where a SMILES comes first, the peptide text is derived from it. [ ]: non-standard residue; d: D form. The star is where a group is joined. ξ: configuration not given here. Boc = CC(C)(C)OC(=O)*; ξP = O=C(O)C1CCCN1

Experiment: qHTS Assay for Lipid Storage Modulators in Drosophila S3 Cells;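 for cell number change: cells counted by Cell Tracker Red CMTPX staining in the red channel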
Details: BODIPY lipid droplet fluorescence, 18-24 h; for cell number change: measured here: cell count max response, cells fed with added oleic acid
Summary of the method: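 Drosophila S3 cells got compounds at several concentrations plus oleic acid (400 uM solution). Laser-scanning cytometry with 488 nm excitation read lipid droplets at 500-530 nm and cells at 575-640 nm. Percent activity was relative to 20 uM Triacsin C.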

[1] = measured here: cell number channel AC50, cells fed with added oleic acid
[2] = measured here: lipid fluorescence (Fed channel) AC50, cells fed with added oleic acid

O=C(Nc1ncnc2c1ncn2C1OC(COC(=O)c2ccccc2)C(F)C1O)c1ccccc1 (configuration not stated)
AC50 [1]: 6.51 µM [rising, single point]

COc1ccc(CCNC(=O)C2CCCN(S(=O)(=O)c3ccccc3)C2)cc1 (configuration not stated)
cell number change: 28.2% | AC50 [2]: 6.51 µM [rising, single point]

COc1ccccc1CNC(=O)CC12CC3CC(CC(Br)(C3)C1)C2
cell number change: 4.62%

Cc1oc2nc(SCC(=O)NCCCO)nc(N)c2c1C
cell number change: 25.4% | AC50 [2]: 3.26 µM [rising, full curve, poor fit]

CCn1cc(C(=O)OCC(=O)c2ccc(Cl)cc2)c(=O)c2ccc(C)nc21
cell number change: -18.2% | AC50 [2]: 29.1 µM [falling, single point]

CC(C)Nc1nc(NC2CCCC2)nc(N2CCOCC2)n1
cell number change: -33.1% | AC50 [1]: 9.2 µM [falling, full curve, poor fit] | AC50 [2]: 2.59 µM [falling, full curve]

CCOc1ccc(CCNC(=O)COC(=O)CSc2ccccc2C)cc1OCC
cell number change: 31.2% | AC50 [1]: 4.11 µM [rising, full curve, poor fit] | AC50 [2]: 4.11 µM [rising, single point]

O=C(/C=C/c1ccccc1Cl)c1ccc(O)cc1
cell number change: -15.6% | AC50 [2]: 23.1 µM [falling, single point]

CCc1ccccc1N1C(=O)C2CC(C)=C(C)CC2C1=O (configuration not stated)
cell number change: -2.2% | AC50 [2]: 20.6 µM [falling, partial curve]

CCc1cccc(NC(=O)COC(=O)c2cc(=O)c3ccccc3o2)c1
cell number change: 4%

CCCc1nnc(SCC(=O)Nc2ccc(Cl)cc2Cl)o1
AC50 [2]: 0.58 µM [rising, single point]

C/C(=N\O)c1ccco1
cell number change: -2.58% | AC50 [1]: 0.092 µM [falling, full curve, poor fit]

CC(=O)Nc1ccc(NC(=O)CSc2n[nH]c(-c3cccs3)n2)cc1
cell number change: -6.5%

CCOC(=O)c1[nH]c2ccc(F)cc2c1NC(=O)CN1CCN(C/C=C/c2ccccc2)CC1
cell number change: -15% | AC50 [2]: 32.6 µM [falling, single point]

c1ccc2c(NC3CCCC3)nnc(NC3CCCC3)c2c1
cell number change: 91.1% | AC50 [1]: 10.3 µM [rising, partial curve] | AC50 [2]: 3.26 µM [rising, single point]

CCc1ccc(N2CCN(C(=O)N3CCOCC3)CC2)cc1
cell number change: -35.1% | AC50 [1]: 0.00517 µM [falling, full curve, poor fit] | AC50 [2]: 32.6 µM [falling, partial curve, poor fit]

CCOc1cccc2cc(C(=O)N3CCc4ccccc43)c(=O)oc12
cell number change: -7.69%

Cc1sc2nc(CSCC(=O)Nc3cc(F)ccc3F)[nH]c(=O)c2c1C
cell number change: -2.72% | AC50 [2]: 14.6 µM [rising, partial curve, poor fit]

Cc1cc(C)c(C(=O)CSc2nnc(C)c(=O)[nH]2)cc1C
cell number change: 160% | AC50 [1]: 29.1 µM [rising, single point]

Cc1ccc(S(=O)(=O)NC(=O)c2ccccc2C)cc1
cell number change: 40.4% | AC50 [1]: 29.1 µM [rising, single point] | AC50 [2]: 0.651 µM [rising, full curve, poor fit]

O=C(N/N=C/c1cn(Cc2ccccc2)c2ccccc12)c1cccnc1
cell number change: -40.1% | AC50 [1]: 10.3 µM [falling, partial curve, poor fit] | AC50 [2]: 1.3 µM [rising, partial curve]

CCC(=O)N1CCN(c2ccc(NC(=O)c3ccc([N+](=O)[O-])o3)cc2Cl)CC1
cell number change: -56.8%

CC(=O)N1N=C(c2ccc(C)cc2)CC1c1ccco1 (configuration not stated)
cell number change: 8.12% | AC50 [2]: 0.251 µM [falling, partial curve, poor fit]

Cc1cc(C)cc(OCC(=O)NNC(=O)c2cc3ccccc3oc2=O)c1
cell number change: 9.43% | AC50 [2]: 29.1 µM [rising, single point]

Cc1ccc(Nc2nc3c([nH]2)c(=O)n(C)c(=O)n3C)cc1
cell number change: 29.3% | AC50 [1]: 3.66 µM [rising, full curve, poor fit] | AC50 [2]: 20.6 µM [rising, partial curve]

CC(=O)Nc1ccc(S(=O)(=O)N2CCC3(CC2)CC(=O)c2ccccc2O3)cc1
cell number change: 29.1%

CCN(CC)C(=O)CSc1nc2ccc(NC(=O)CSc3nnc(N)s3)cc2s1
cell number change: -20% | AC50 [2]: 9.2 µM [falling, partial curve, poor fit]

O=C(COC(=O)C12CC3CC(CC(C3)C1)C2)NC12CC3CC(CC(C3)C1)C2
cell number change: -17.5% | AC50 [2]: 16.4 µM [falling, single point]

CCOC(=O)c1sc(=NC(=O)COc2ccccc2)n(C)c1C
cell number change: -13% | AC50 [2]: 23.1 µM [rising, single point]

O=C(c1ccc(C(F)(F)F)cc1)N1CCC(=O)N(C(COCc2ccccc2)Cc2ccccc2)CC1 (configuration not stated)
cell number change: -31.2% | AC50 [1]: 29.1 µM [falling, single point] | AC50 [2]: 32.6 µM [falling, single point]

Cc1cc(C(=O)COC(=O)c2ccc[nH]c2=O)c(C)n1CCc1ccc(F)cc1
cell number change: -21.5% | AC50 [2]: 6.51 µM [rising, partial curve]

COc1ccc(S(=O)(=O)N2CCC(C(=O)NC3CCCCC3C)CC2)cc1 (configuration not stated)
cell number change: 13.3%

Nc1ccc(CCC(=O)N2CCCC2)cc1
cell number change: 20.4%

COc1cccc(NC(=O)NC2CCCCC2C)c1 (configuration not stated)
cell number change: 11.2%

O=C(CSc1nnnn1C1CCCCC1)NCc1ccc2c(c1)OCO2
cell number change: -10.2%

COC(=O)c1cc(-c2ccc(Cl)cc2)n(-c2ccc(S(N)(=O)=O)cc2)n1
cell number change: 45.5% | AC50 [1]: 6.51 µM [rising, partial curve, poor fit] | AC50 [2]: 25.9 µM [rising, partial curve, poor fit]

O=C(O)c1ccc(C2CCCCC2)cn1
AC50 [1]: 0.411 µM [falling, partial curve, poor fit] | AC50 [2]: 0.13 µM [falling, full curve, poor fit]

CC(C)Cn1c(SCC(=O)NCc2ccc(Cl)cc2)nnc1-c1cccc(S(=O)(=O)N2CCOCC2)c1
cell number change: -10.8% | AC50 [2]: 29.1 µM [falling, single point]

O=C(NC1CC2CCC1C2)C1CCN(S(=O)(=O)c2ccc(-c3nn[nH]n3)cc2)CC1 (configuration not stated)
cell number change: 6.31% | AC50 [1]: 5.8 µM [rising, single point]

O=C(COC(=O)c1ccc2c(c1)C(=O)N(c1cccc3ncccc13)C2=O)c1ccc(Cl)cc1
cell number change: -2.08% | AC50 [1]: 0.146 µM [falling, full curve]

COc1ccc(S(=O)(=O)Nc2ccccn2)cc1
cell number change: 26%

CSc1ncccc1C(=O)OCc1ccc(COC(=O)c2cccnc2SC)cc1
cell number change: -48.9% | AC50 [1]: 29.1 µM [falling, single point] | AC50 [2]: 6.51 µM [falling, partial curve, poor fit]

Cc1ccsc1C(=O)OCC(=O)NCc1ccc(Cl)cc1
cell number change: -13.1% | AC50 [1]: 1.16 µM [rising, partial curve] | AC50 [2]: 0.411 µM [falling, single point]

CC1CC(=O)Nc2ccccc2N1C(=O)COc1ccc2cc(Br)ccc2c1 (configuration not stated)
cell number change: 27.7% | AC50 [2]: 29.1 µM [rising, single point]

CC(=O)Nc1ccc(Br)c2ccccc12
cell number change: -53%

O=C(COC(=O)c1ccc(F)cc1)NCCc1ccc(F)cc1
cell number change: -28.4% | AC50 [1]: 2.91 µM [rising, single point] | AC50 [2]: 2.31 µM [falling, partial curve]

COC(=O)c1ccc(N2CCOCC2)c(NC(=O)c2cccnc2)c1
cell number change: 34.2% | AC50 [2]: 25.1 µM [rising, single point]

O=S1(=O)CCOC[C@H](CC2CCCCC2)N1Cc1ccccc1F
cell number change: 23.9% | AC50 [2]: 29.1 µM [rising, single point]

COCCNC(=O)CN(C(=O)CCC(=O)Nc1ccccn1)c1ccccc1F
cell number change: -6.18% | AC50 [1]: 2.91 µM [rising, single point]

CCCC(=O)Nc1cc(C)c(NC(=O)c2ccncc2)cn1
cell number change: 16.3% | AC50 [2]: 29.1 µM [rising, single point]

COc1ccc2[nH]c(C(=O)N3CCC(n4nccc4NC(=O)C4CC4)CC3)c(C)c2c1
cell number change: -12.7%

Fc1cccc(Nc2nc3ccccc3n3nnnc23)c1
cell number change: 2.92% | AC50 [2]: 0.164 µM [rising, full curve, poor fit]

COc1ccc(-c2cn(CCN)c(-c3ccncc3)n2)cc1
cell number change: -3.5%

COC(=O)CNC(=O)C1CCCN1C(=O)CNC(=O)OC(C)(C)C (stereo not drawn) (Boc-Gly-[ξP]-Gly-OMe)
cell number change: -0.392%

O=C(CCC(=O)N1CCCc2ccccc21)N1CCN(S(=O)(=O)c2ccccc2)CC1
cell number change: -0.0874% | AC50 [2]: 6.51 µM [rising, single point]

Cc1ccc(N(CC(O)COCc2ccco2)S(=O)(=O)c2ccc(C)cc2)cc1 (configuration not stated)
cell number change: -0.738% | AC50 [1]: 0.731 µM [falling, single point] | AC50 [2]: 14.6 µM [falling, partial curve, poor fit]

Cn1ccc(C(=O)Nc2ccc(Br)cc2Br)n1
cell number change: -3.08% | AC50 [2]: 4.61 µM [falling, single point]

CCN(CC)C(=O)c1ccc2c(=O)n(Cc3cccc(Br)c3)c(=S)[nH]c2c1
AC50 [1]: 2.91 µM [rising, single point]

Cc1cccc(Nc2nc(N)c([N+](=O)[O-])c(N3CCC(C)CC3)n2)c1
cell number change: -53.5% | AC50 [2]: 4.11 µM [falling, partial curve]

O=C(C1CCN(c2nnc(-n3cccc3)s2)CC1)N1CCN(c2cccc(C(F)(F)F)c2)CC1
cell number change: -19.7% | AC50 [2]: 18.4 µM [rising, single point]

Cc1cc(C)c2cc(C(=O)Nc3ccc4c(c3)OCO4)[nH]c2c1
AC50 [1]: 1.64 µM [rising, partial curve] | AC50 [2]: 6.51 µM [rising, single point]
